Data: publication PMC11445503

Target: ABL1 as used in the GST pull-down of Supplementary Fig. S2F (human)
Assay: pull-down; GST pull-down of Supplementary Fig. S2F; which partner carried GST is not told

B1: FOXM1 N-terminal repressor domain (NRD, aa 1-234) (domain or fragment, UniProt Q08050-2 1-234)
chain: MKTSPRRPLILKRRRLPLPVQNAPSETSEEEPKRSPAQQESNQAEASKEVAESNSCKFPAGIKIINHPTMPNTQVVAIPNNANIHSIITALTAKGKESGSSGPNKFILISCGGAPTQPPGLRPQTQTSYDAKRTEVTLETLGPKPAARDVNLPRPPGALCEQKRETCADGEAAGCTINNSLSNIQWLRKMSSDGLGSRSIKQEMEEKENCHLEQRQVKVEEPSRPSASWQNSVS
Question: B1 was tested. Which binding did it give?
Answer: binds

No constants are given. Whether binding was seen depends on the method and setting. In cells and extracts the contact can be indirect. A result given as binding can be weak or reduced; the word gives no strength.
